Data: paper PMC10579798
These are yes or no findings as the source states them, for the method shown. In cells and extracts the contact can be indirect. A result given as binding can be weak or reduced; the word gives no strength. Where a sequence is shown, tags or fusion partners need not be part of it.

Biological target: T1, HA-tagged Hipk (Drosophila homeodomain-interacting protein kinase) (Drosophila) (UniProt Q9W0Q1)
T1 sequence: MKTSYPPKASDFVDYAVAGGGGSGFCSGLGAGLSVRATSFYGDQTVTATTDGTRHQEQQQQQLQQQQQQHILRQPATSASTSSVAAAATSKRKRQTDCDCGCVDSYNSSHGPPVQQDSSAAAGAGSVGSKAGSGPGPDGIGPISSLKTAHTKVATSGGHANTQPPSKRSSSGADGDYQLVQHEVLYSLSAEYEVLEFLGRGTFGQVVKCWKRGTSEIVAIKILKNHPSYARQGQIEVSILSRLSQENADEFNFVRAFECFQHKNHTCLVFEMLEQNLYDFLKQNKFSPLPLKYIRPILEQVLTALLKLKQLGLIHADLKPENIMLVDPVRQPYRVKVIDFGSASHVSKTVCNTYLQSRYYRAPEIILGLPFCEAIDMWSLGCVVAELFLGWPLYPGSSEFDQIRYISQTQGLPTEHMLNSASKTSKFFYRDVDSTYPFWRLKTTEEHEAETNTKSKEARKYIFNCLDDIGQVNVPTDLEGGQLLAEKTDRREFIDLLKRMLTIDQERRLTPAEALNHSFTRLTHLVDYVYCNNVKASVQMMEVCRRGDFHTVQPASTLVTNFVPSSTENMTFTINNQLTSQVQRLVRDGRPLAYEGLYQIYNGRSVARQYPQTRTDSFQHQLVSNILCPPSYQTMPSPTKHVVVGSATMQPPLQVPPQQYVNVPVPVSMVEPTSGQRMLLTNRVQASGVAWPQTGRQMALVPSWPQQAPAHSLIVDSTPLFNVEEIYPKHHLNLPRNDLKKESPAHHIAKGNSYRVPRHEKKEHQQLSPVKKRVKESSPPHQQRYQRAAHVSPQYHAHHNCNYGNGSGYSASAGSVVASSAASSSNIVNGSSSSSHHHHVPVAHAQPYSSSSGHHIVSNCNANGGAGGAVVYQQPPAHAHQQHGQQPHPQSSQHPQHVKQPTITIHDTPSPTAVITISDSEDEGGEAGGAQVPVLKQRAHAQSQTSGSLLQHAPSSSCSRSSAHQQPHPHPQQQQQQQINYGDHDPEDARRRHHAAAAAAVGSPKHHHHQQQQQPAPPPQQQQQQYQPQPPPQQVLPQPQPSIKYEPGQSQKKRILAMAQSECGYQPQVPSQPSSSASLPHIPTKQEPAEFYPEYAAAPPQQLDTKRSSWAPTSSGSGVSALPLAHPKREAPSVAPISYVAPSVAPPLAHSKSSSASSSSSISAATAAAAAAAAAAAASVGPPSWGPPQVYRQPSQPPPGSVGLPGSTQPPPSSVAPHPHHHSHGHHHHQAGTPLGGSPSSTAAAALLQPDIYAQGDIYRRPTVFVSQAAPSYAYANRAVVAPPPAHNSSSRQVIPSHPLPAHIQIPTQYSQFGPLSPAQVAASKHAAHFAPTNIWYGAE
Assay: co-IP; protein extracts of dpp-Gal4 larvae co-expressing HA-Hipk and a myc-tagged Sik; precipitated with anti-Hipk antibodies (control IgG), overnight at 4°C, protein A and protein G magnetic beads, washed with lysis buffer, Western blot

myc-tagged wild-type Sik2 (Drosophila salt-inducible kinase 2) (from UniProt Q9W532) (enzyme)
binding: binds
